Test results reported in the supplement of paper PMC6078165.

System: BT20
Test: relative JC-1 red fluorescence (viability) vs pre-drug, coculture with fibroblast (fraction); higher = more viable cancer cells
Experimental: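 JC-1 labelled TNBC cells cocultured 1:1 (1,500 cells each) with CellTrace Violet stained primary or stromal fibroblasts in 384-well plates in FluoroBrite medium, treated with one of 42 anticancer drugs at 0.1, 1, 10 or 100 uM. JC-1 red fluorescence (mitochondrial integrity in cancer cells only) was read by plate reader every 8 h for 72 h. Values are normalised to each well's pre-drug value. The stock of one drug was tenfold lower, so its dose labels may be too high.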

CCC1=C[C@@H]2CN(C1)Cc1c([nH]c3ccccc13)[C@@](C(=O)OC)(c1cc3c(cc1OC)N(C)[C@H]1[C@@](O)(C(=O)OC)[C@H](OC(C)=O)[C@]4(CC)C=CCN5CC[C@]31[C@@H]54)C2 [Vinorelbine]
relative JC-1 red fluorescence
Conditions | 8 h | 16 h | 24 h | 32 h | 40 h | 48 h | 56 h | 64 h | 72 h
10 µM, coculture fibroblast: C12385 | 0.898 | 0.849 | 0.805 | 0.772 | 0.713 | 0.67 | 0.634 | 0.581 | 0.55
10 µM, coculture fibroblast: H6013 | 0.972 | 0.928 | 0.867 | 0.846 | 0.873 | 0.838 | 0.821 | 0.794 | 0.776
10 µM, coculture fibroblast: H6019 | 0.875 | 0.839 | 0.793 | 0.736 | 0.699 | 0.67 | 0.627 | 0.5879 | 0.5687
10 µM, coculture fibroblast: H6076 | 0.783 | 0.856 | 0.923 | 0.848 | 0.761 | 0.691 | 0.633 | 0.59 | 0.552
10 µM, coculture fibroblast: H6231 | 0.749 | 0.84 | 0.877 | 0.797 | 0.743 | 0.683 | 0.626 | 0.577 | 0.527
10 µM, coculture fibroblast: HADF | 0.834 | 0.945 | 0.862 | 0.851 | 0.8 | 0.76 | 0.752 | 0.725 | 0.708
10 µM, coculture fibroblast: HCFa | 0.925 | 0.905 | 0.885 | 0.816 | 0.773 | 0.733 | 0.679 | 0.65 | 0.623
10 µM, coculture fibroblast: HCPF | 0.827 | 0.903 | 0.939 | 0.863 | 0.815 | 0.745 | 0.674 | 0.656 | 0.609
10 µM, coculture fibroblast: HHSteC | 0.896 | 0.864 | 0.759 | 0.871 | 0.918 | 0.902 | 0.831 | 0.81 | 0.791
10 µM, coculture fibroblast: HMF | 0.808 | 0.985 | 0.896 | 0.846 | 0.7612 | 0.697 | 0.641 | 0.589 | 0.54
10 µM, coculture fibroblast: HPFa | 0.939 | 0.903 | 0.874 | 0.799 | 0.761 | 0.704 | 0.643 | 0.63 | 0.594
10 µM, coculture fibroblast: HUF | 0.894 | 0.8247 | 0.806 | 0.73 | 0.683 | 0.641 | 0.595 | 0.563 | 0.543
10 µM, coculture fibroblast: Hs5 | 0.7048 | 0.842 | 0.8952 | 0.846 | 0.762 | 0.701 | 0.644 | 0.605 | 0.572
10 µM, coculture fibroblast: Hs27A | 0.817 | 0.752 | 0.911 | 0.953 | 0.9021 | 0.8671 | 0.822 | 0.77 | 0.739
10 µM, coculture fibroblast: Hs343T | 0.829 | 0.93 | 0.886 | 0.82 | 0.758 | 0.714 | 0.643 | 0.604 | 0.561
10 µM, coculture fibroblast: WS1 | 0.8601 | 0.8029 | 0.776 | 0.71 | 0.654 | 0.614 | 0.566 | 0.536 | 0.515
100 µM, coculture fibroblast: C12385 | 0.653 | 0.498 | 0.333 | 0.23 | 0.158 | 0.13 | 0.0999 | 0.0784 | 0.0569
100 µM, coculture fibroblast: H6013 | 0.706 | 0.383 | 0.336 | 0.232 | 0.186 | 0.15 | 0.138 | 0.109 | 0.0819
100 µM, coculture fibroblast: H6019 | 0.595 | 0.247 | 0.179 | 0.117 | 0.0749 | 0.0582 | 0.0354 | 0.0188 | 0.00562
100 µM, coculture fibroblast: H6076 | 0.835 | 0.499 | 0.386 | 0.336 | 0.292 | 0.254 | 0.223 | 0.191 | 0.15
100 µM, coculture fibroblast: H6231 | 0.621 | 0.388 | 0.228 | 0.177 | 0.146 | 0.108 | 0.0728 | 0.055 | 0.0299
100 µM, coculture fibroblast: HADF | 0.793 | 0.555 | 0.418 | 0.277 | 0.234 | 0.187 | 0.164 | 0.143 | 0.108
100 µM, coculture fibroblast: HCFa | 0.887 | 0.66 | 0.528 | 0.386 | 0.343 | 0.299 | 0.283 | 0.26 | 0.222
100 µM, coculture fibroblast: HCPF | 0.802 | 0.521 | 0.385 | 0.314 | 0.274 | 0.234 | 0.195 | 0.166 | 0.113
100 µM, coculture fibroblast: HHSteC | 0.644 | 0.369 | 0.386 | 0.309 | 0.294 | 0.266 | 0.265 | 0.242 | 0.224
100 µM, coculture fibroblast: HMF | 0.774 | 0.372 | 0.325 | 0.279 | 0.241 | 0.207 | 0.177 | 0.143 | 0.099
100 µM, coculture fibroblast: HPFa | 0.803 | 0.683 | 0.602 | 0.412 | 0.346 | 0.287 | 0.264 | 0.234 | 0.194
100 µM, coculture fibroblast: HUF | 0.704 | 0.532 | 0.345 | 0.221 | 0.174 | 0.141 | 0.1238 | 0.103 | 0.0869
100 µM, coculture fibroblast: Hs5 | 0.59 | 0.427 | 0.307 | 0.257 | 0.219 | 0.181 | 0.147 | 0.116 | 0.0823
100 µM, coculture fibroblast: Hs27A | 0.82 | 0.704 | 0.6196 | 0.499 | 0.458 | 0.44 | 0.448 | 0.417 | 0.389
100 µM, coculture fibroblast: Hs343T | 0.743 | 0.334 | 0.259 | 0.225 | 0.192 | 0.154 | 0.122 | 0.0992 | 0.0645
100 µM, coculture fibroblast: WS1 | 0.542 | 0.234 | 0.21 | 0.155 | 0.108 | 0.0861 | 0.0625 | 0.0449 | 0.0262

Values are relative to the signal before dosing, not to a vehicle control; the signal also falls without drug.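 Fibroblast labels name human fibroblasts: mostly primary ones from tissues such as uterus (C12385, HUF), lung (H6013), bone (Hs27A), adrenal (HADF) and skin (WS1), plus mammary HMF and breast cancer-associated Hs343T. The cancer cells are basal-like or mesenchymal-like triple-negative breast cancer lines. The paper calls a changed response a hit when it shifts by more than 3x the replicate standard deviation. The tissue of the other fibroblasts is not given here.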
